# Calls of active or inactive are those of the source. No rule for the calls is given here.
# Amino acid sequences for entries named in this document (tags omitted). A change or cut given only in a name is not applied to a line headed by its entry.
# UniProt P17861: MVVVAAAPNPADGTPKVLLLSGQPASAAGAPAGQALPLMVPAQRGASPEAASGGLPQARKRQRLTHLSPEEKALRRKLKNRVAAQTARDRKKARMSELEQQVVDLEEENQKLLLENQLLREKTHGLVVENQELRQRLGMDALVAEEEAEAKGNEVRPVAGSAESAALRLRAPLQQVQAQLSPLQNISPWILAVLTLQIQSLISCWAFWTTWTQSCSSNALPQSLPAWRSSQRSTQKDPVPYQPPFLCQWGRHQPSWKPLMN
# Biological target: X-box-binding protein 1 (Homo sapiens) (UniProt P17861)
# Test: XBP1 reporter suppression in cells – counter-screen, dose response (AID 504313);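 also: CHO cells carrying an XBP1 reporter stimulated with tunicamycin; potency is for inhibition of the tunicamycin-induced reporter signal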
# Details: XBP1 reporter cell assay, percent of control
row,SMILES,IC50
1,CC(C)(C)C1CCC2(CC1)C(C#N)=C(SCC(=O)Nc1ccccc1)NC(=O)C2C#N (stereo not drawn),inactive
2,COc1ccc2[nH]c3c(C)c4ccncc4c(C)c3c2c1,inactive: > 10 µM
3,COc1cc(CN2CCc3ccccc3C2)ccc1O,inactive: > 10 µM

# From PubChem BioAssay AID504313 (Emory University Molecular Libraries Screening Center, 2011)
